# Patent publication US11033630B2, “Method and pharmaceutical composition for treatment of neurodegeneration” (priority 2016, dated 2021)
# Some of these results come from one statement about several compounds together. At least one compound was matched to its structure with a doubt left.
# Tested on: MOG35-55-induced EAE in C57BL/6 mice
# Assay: Experimental Autoimmune Encephalomyelitis (EAE), model for multiple sclerosis
# Type: in vivo
# Details: for clinical score during the next two weeks after peak: Table 2 scale
# Protocol: In this study, the therapeutic effect of metal-DFO complex on multiple sclerosis (MS) is tested, using the Experimental Autoimmune Encephalomyelitis (EAE) in mice.
# EAE is induced in 8-week-old female C57BL/6 mice by subcutaneous (SC) injection of 125 μg of myelin oligodendrocyte glycoprotein 35-55 peptide (MOG35-55) emulsified in complete Freund's adjuvant (CFA) containing 5 mg/ml heat-killed Mycobacterium tuberculosis into the left para-lumbar region. Immediately thereafter, and again at 48 h, the mice are inoculated intraperitoneal (IP) with 0.5 ml of pertussis toxin (400 ng). Seven days later, the mice are further challenged with an additional injection of MOG35-55 peptide in CFA injected into the right para-lumbar region. Mice are treated with Zn-DFO or Ga-DFO daily as IP injections, 2 mg/kg and 6 mg/kg.
# The severity of the disease is assessed using the scale shown in Table 2 (Bittner et al., 2014).
# [1] = 2 mg/kg daily IP, reached on Day 17, Table 2 scale
Compound,clinical score during the next two weeks after peak (2 mg/kg daily IP),peak clinical score [1],"peak clinical score (6 mg/kg daily IP, Day 19, Table 2 scale)"
"CC(=O)N([O-])CCCCCNC(=O)CCC(=O)N([O-])CCCCCNC(=O)CCC(=O)N([O-])CCCCCN.[Ga+3] [Ga-DFO, gallium-desferrioxamine B]",3-4,4-5,3-4
Zinc-desferrioxamine B [Zn-DFO],3-4,4-5,–
